Patent publication US5661139A, “Bis-(2-aryl) hydrazones” (Alteon Inc., priority 1995, dated 1997)
At least one read-out could not be matched to a standard name with certainty.

Tested on: glycated bovine serum albumin (AGE-BSA) cross-linking to rat tail tendon collagen
Assay: Inhibition of cross-linking of glycated bovine serum albumin (AGE-BSA) to rat tail tendon collagen coated 96-well plate (ELISA)
Settings: PAS buffer pH 7.4, 37° C., 4 hours, intro says 'IC50 relative inhibition ... at 10 mM'

## methyl glyoxal bis-(dimethyl hydrazinobenzoate)hydrazone
  IC50: 10 mM
